PubChem BioAssay AID743454 – Peter MacCallum Cancer Centre, 2014

Test: 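Genes whose loss kills vorinostat-resistant colon cancer cells under vorinostat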 (primary screen)
System: human HCT116-VR colon cancer cells, selected for vorinostat resistance
Reagents: siRNA pool against human genes, 40 nM siRNA pool
Duration: vorinostat for 24 h, read-out about 72 h after transfection
Treatment: vorinostat at 2.5 µM final
Measured: 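Two measures, CellTiter-Fluor viability and luminescent caspase 3/7 activity, each as fold change against same-plate mock wells, mean of duplicates, then screen-wide robust z-score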
Reading the numbers: viability robust z-score: higher = more viable cells than screen typical; caspase robust z-score: higher = more caspase 3/7 activity than screen typical
Rule for the call: 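Hits are knock-downs in viability class RV1/RV2 or caspase class CA1/CA2, excluding ones that killed cells in the no-drug cell-count arm; hits then retested with single siRNAs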
The whole screen tested about 18,000 reagents; this is a part drawn at random. 450 of all reagents (2.5%) were called active. 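Single biological run; no consistent viability z cut-off exists, so the class columns, not z-scores, define the calls.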 A number with no mark means an inactive call. No sequences are given here.

target gene | viability hit class | caspase hit class | viability robust z-score | caspase robust z-score
SH2D4B (GeneID 387694) | no change | no change | -0.52 | -0.72
PADI6 (GeneID 353238) | no change | no change | 0.94 | -0.26
CNKSR1 (GeneID 10256) | no change | no change | -4.6 | 0.4
ETS1 (GeneID 2113) | no change | no change | -1.19 | -1.16
DMBX1 (GeneID 127343) | no change | no change | 0.58 | -0.54
CXXC1 (GeneID 30827) | no change | no change | -1.35 | 1.57
CASK (GeneID 8573) | no change | no change | -0.64 | -0.47
U2AF1L4 (GeneID 199746) | no change | no change | 0.08 | -0.42
ARL13B (GeneID 200894) | no change | no change | 0.22 | -0.12
GPR6 (GeneID 2830) | no change | no change | 0.37 | -0.98
NDOR1 (GeneID 27158) | no change | no change | -0.2 | -1.34
TRIM11 (GeneID 81559) | no change | no change | 0.08 | -0.18
ZNF331 (GeneID 55422) | no change | no change | -0.06 | 1.29
GGPS1 (GeneID 9453) | no change | no change | 0.03 | -0.66
DCP1A (GeneID 55802) | no change | no change | -0.12 | 1.39
TTYH2 (GeneID 94015) | no change | no change | -0.14 | -0.1
HAL (GeneID 3034) | no change | no change | -2.43 | 0.83
LRFN4 (GeneID 78999) | no change | no change | -0.46 | 3.64
PACC1 (GeneID 55248) | no change | no change | 0.1 | 1.03
AMMECR1 (GeneID 9949) | no change | no change | -1.62 | 0.44
LTB (GeneID 4050) | no change | no change | 1.11 | 0.03
SLBP (GeneID 7884) | no change | no change | -0.76 | 3.17
RNF180 (GeneID 285671) | no change | no change | -0.26 | -0.42
CLEC17A (GeneID 388512) | no change | no change | 0.48 | -0.1
AHDC1 (GeneID 27245) | no change | no change | 0.16 | 1.09
VPREB3 (GeneID 29802) | no change | no change | 0.74 | -1.25
TMEM231 (GeneID 79583) | no change | no change | -0.08 | 0.23
NT5C3B (GeneID 115024) | no change | no change | 1.69 | 3.13
CD300LF (GeneID 146722) | no change | no change | 1.6 | 0.26
ITGA5 (GeneID 3678) | no change | no change | 0.26 | -0.63
MASP2 (GeneID 10747) | RV2 (reduced viability) (active) | no change | -2.96 | 2.29
PWWP3A (GeneID 84939) | no change | no change | 1.17 | 0.69
TXNRD2 (GeneID 10587) | no change | no change | -1.4 | 1.17
CLEC3B (GeneID 7123) | no change | no change | -3.24 | 3.47
CPB1 (GeneID 1360) | no change | no change | -0.51 | 3.32
MMP24 (GeneID 10893) | no change | no change | 0.46 | -0.24
DEFB132 (GeneID 400830) | no change | no change | -0.94 | -1.69
FUS (GeneID 2521) | no change | no change | -0.05 | -0.36
MSL2 (GeneID 55167) | no change | no change | -0.9 | 2.08
